These results are taken from article PMC8766550.

The chains behind the UniProt entries cited, without tags or fusion partners.
UniProt Q07820: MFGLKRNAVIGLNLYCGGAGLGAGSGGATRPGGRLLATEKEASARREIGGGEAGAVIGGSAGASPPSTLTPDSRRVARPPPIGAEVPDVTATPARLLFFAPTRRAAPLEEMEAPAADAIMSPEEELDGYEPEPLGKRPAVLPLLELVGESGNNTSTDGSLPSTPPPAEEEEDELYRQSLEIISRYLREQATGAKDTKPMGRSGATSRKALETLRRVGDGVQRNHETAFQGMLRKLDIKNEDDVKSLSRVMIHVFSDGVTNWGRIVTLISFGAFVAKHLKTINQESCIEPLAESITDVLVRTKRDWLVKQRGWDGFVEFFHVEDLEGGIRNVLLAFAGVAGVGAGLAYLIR
UniProt P06733: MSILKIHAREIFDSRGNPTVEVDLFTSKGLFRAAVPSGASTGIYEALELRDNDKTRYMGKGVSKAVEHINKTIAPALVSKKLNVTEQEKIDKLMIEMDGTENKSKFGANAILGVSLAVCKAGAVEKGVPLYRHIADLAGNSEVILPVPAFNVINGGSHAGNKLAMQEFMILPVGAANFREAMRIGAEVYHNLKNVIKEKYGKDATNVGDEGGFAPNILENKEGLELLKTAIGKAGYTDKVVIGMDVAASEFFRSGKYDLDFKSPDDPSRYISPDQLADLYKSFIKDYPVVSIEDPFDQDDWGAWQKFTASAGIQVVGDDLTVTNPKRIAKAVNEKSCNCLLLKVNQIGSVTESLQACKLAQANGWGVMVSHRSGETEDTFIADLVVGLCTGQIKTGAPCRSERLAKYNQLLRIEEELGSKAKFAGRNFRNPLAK

These are yes or no findings as the source states them, for the method shown. For part of these data: Binding seen in cells or lysates may run through a third protein. Some entries that bind do so weakly or less than the wild type.

For assay [1], the target named is Flag-tagged MCL1 (Myeloid Cell Leukemia 1), wild type, full-length (UniProt Q07820). Put plainly: co-IP; anti-MCL1 antibody, MCL1 CRISPR HCT116 p53-/- cells transiently transfected with wild type or mutant MCL1; blots for CaM and ENO1.
Assay [2] shares this target. Nature of the assay: co-IP; anti-Flag (M2) antibody, MCL1 knockout HCT116 p53-/- cells transiently transfected with Flag-tagged MCL1 or empty vector; lysis in 20 mM Tris/HCl pH 7.4, 150 mM NaCl, 2 mM EDTA, 10% glycerol, 1% Triton X-100; 4 °C; ENO1 under CIS condition.
The target of another assay is GST-ENO1 fusion protein (UniProt P06733). Put plainly: pull-down; GST or GST-ENO1 bound to glutathione-Sepharose beads, purified MCL1 added; 50 mM potassium phosphate pH 7.5, 150 mM KCl, 1 mM MgCl2, 10% glycerol, 1% Triton X-100; 4 °C, 2 h; western blot; both purified.

Take “alpha-enolase (from UniProt P06733 1-434) (enzyme)”: the binding entry in assay [1] and in assay [2] was “binds” each time.

As for “Flag-tagged MCL1 (Myeloid Cell Leukemia 1), wild type, full-length (from UniProt Q07820 1-350)”, in the assay with GST-ENO1 fusion protein, the binding result was “binds”.
